We go through 63 molecules from US20040253247A1.

Amino acid sequences for entries named in this document (tags omitted). Residues count along the entry.
UniProt P02770, residues 25-608: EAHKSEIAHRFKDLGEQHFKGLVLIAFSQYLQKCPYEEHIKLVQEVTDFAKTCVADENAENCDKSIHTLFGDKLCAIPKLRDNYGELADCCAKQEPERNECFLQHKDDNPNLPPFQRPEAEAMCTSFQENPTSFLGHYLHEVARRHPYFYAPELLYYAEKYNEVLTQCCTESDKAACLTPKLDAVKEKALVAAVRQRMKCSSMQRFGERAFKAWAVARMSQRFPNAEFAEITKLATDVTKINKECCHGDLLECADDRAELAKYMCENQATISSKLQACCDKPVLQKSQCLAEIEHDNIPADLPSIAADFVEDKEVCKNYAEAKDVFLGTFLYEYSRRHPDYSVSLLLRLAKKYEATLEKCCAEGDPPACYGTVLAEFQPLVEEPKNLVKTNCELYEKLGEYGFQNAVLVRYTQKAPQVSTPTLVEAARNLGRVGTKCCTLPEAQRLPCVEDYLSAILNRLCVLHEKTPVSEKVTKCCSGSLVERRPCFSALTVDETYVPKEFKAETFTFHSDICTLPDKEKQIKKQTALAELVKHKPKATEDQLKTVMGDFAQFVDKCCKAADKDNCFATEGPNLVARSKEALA

Results are given in words; binding and its absence hold for the method and conditions named. Some results given as binding are weak or reduced against the parent protein; the word gives no strength.

For the first experiment, the target named is rat albumin (rat) (UniProt P02770). Description: phage ELISA.
As to CGCVDVSDWDCWSECLWSHGA [RE], the binding result is listed as “binds”.

With FEDLCVVRWGCLWGD [RBC-R6], the binding entry is listed as “binds”.

Take FEDFCLPNWGCLWGS [RBC-R4]: the binding entry is recorded as “binds”.

With SEDFCLPVWGCLWED [RBC-R9], the binding entry is reported as “binds”.

With DFDLCLPDWGCLWDD [RBC-R10], the binding entry is recorded as “binds”.

Consider MFDLCLPKWGCLWGN [RBC-R12], for which the binding entry is recorded as “binds”.

As to DTCDDLVQLGLECWA [RD-R11], the binding entry was “binds”.

For EEDVCLPVWGCLWEG [RBC-R20], the binding entry was “binds”.

For the molecule EFDLCLPTWGCLWED [RBC-R13], the binding result is on record as “binds”.

In the case of EWDVCFPAWGCLWDQ [RBC-R18], the binding entry was “binds”.

For WEDLCLPDWGCLWED [RBC-R5], the binding entry is recorded as “binds”.

DLCLRDWGCLW [RC]: the binding entry is “binds”.

Take VWDLCLPQWGCLWDE [RBC-R11]: the binding entry is given as “binds”.

For the molecule NTCADLVRLGLECWA [RD-R7], the binding result is reported as “binds”.

In the case of DSCGDLLRLGLECWA [RD-R6], the binding entry is given as “binds”.

With MDDLCLPNWGCLWGD [RBC-R2], the binding entry was “binds”.

With DTCEDLVRLGLECWA [RD-R5], the binding result is listed as “binds”.

Take DTCSDLVGLGLECWA [RD-R1]: the binding result was “binds”.

For NWDLCFPDWGCLWDD [RBC-R8], the binding entry is “binds”.

MWDVCFPDWGCLWDV [RBC-R15]: the binding result was “binds”.

In another experiment the target is IgG-Fc [IgG part: P01857]. Description: phage selection on IgG-Fc; not individually assayed (N/A).
As to KEASCSYWLGELVWCSAGVE, the binding entry is “binds”.

Regarding KEASCSYWLGELVWCSGVEG, the binding entry was “binds”.

For KEASCSYWLGELVWCDTLTE, the binding result was “binds”.

Regarding EKEDCSYWLGELVWCVAGVE, the binding result was “binds”.

Turning to ESEDCSYWLGELVWCVAGVE, the binding entry is recorded as “binds”.

A further experiment addresses IgG-Fc [IgG part: P01857]. Description: general note of Table I; phage clone, M13/gIII display, EC50 in its own row.
As for KEASCSYWLGELVWCDGLDE, the binding entry is listed as “binds”.

Regarding EVADCSWHLGELVWCTEGEF, the binding entry was “binds”.

As to GEEDCSYHLGELVMCTELDD, the binding entry is “binds”.

As for WVEDCAWHMGELVWCTKVDE, the binding result was “binds”.

In the case of GEADCSYHLGELVWCNDFEE, the binding entry is recorded as “binds”.

On to EEPDCSWHLGELVWCTPIEV, for which the binding entry is given as “binds”.

Consider WEADCAWHLGELVWCTKVEE, for which the binding result is reported as “binds”.

On to READCAWHLGELVWCSERDL, for which the binding result is “binds”.

Consider KEASCSYWLGELVWCDTFDE, for which the binding result was “binds”.

For the molecule KEASCSWHLGELVWCVAGVE, the binding result is “binds”.

With WEEDCAWHLGELVWCAEFDE, the binding entry was “binds”.

In the case of EEPDCSWHLGELVMCTPMEV, the binding result is recorded as “binds”.

As for WVEDCSWHLGELVWCVGLDF, the binding entry is reported as “binds”.

Take KVADCAWHMGELVWCTEVEG: the binding entry was “binds”.

On to RVEDCAYHLGELVWCTEGDE, for which the binding result is reported as “binds”.

As to WVEDCSWHMGELVWCDGGEF, the binding result was “binds”.

For GEPDCAWHLGELVWCTPMVF, the binding result is on record as “binds”.

With EQADCAWHLGELVWCTPMVF, the binding result is “binds”.

As to GVRNCAYHLGELVWCTPMEF, the binding result is “binds”.

With WVDCAYHLGELVWCSTFEE, the binding entry is listed as “binds”.

With KEASCSYWLGELVWCTEGVE, the binding result is “binds”.

For the molecule DLADCSWHLGELVWCSRVEG, the binding result is “binds”.

Turning to RVADCAWHMGELVWCSELEV, the binding entry is listed as “binds”.

Regarding KEADCAWHLGELVWCVAGVE, the binding result is listed as “binds”.

Take KEARCWYWHGELVWCSDPEE: the binding entry is on record as “binds”.

As to KEASCSYWLGELVWCVGLDE, the binding result is “binds”.

Take DLADCSYWLGELVWCSRVEG: the binding entry is recorded as “binds”.

As for KEASCSYHLGELVWCVAGVE, the binding result is reported as “binds”.

Consider DLADCSWHLGELVWCVGLDE, for which the binding result is “binds”.

As for GEQDCSYHMGELVWCTTVDG, the binding entry was “binds”.

On to GEEDCAWHLGELVWCSGGDF, for which the binding entry is “binds”.

With KEASCAWHLGELVWCSEVEE, the binding result is “binds”.

Regarding GEADCAWHLGELVWCTKVEE, the binding result was “binds”.

In the case of GEEDCAWHLGELVWCTDVED, the binding result is recorded as “binds”.

Take GEASCAYHLGELVWCDEGEG: the binding entry is on record as “binds”.

As to KEADCAWHMGELVWCSEMEG, the binding result was “binds”.

In the case of EEASCAYHLGELVWCDAFDV, the binding result is reported as “binds”.

Turning to EVEDCAYHLGELVWCSDLEG, the binding entry was “binds”.
